Drawing on publication PMC10978910, this text covers binding for four molecules.

The target in assay [1] is T1, ALR1-nLUC (Arabidopsis thaliana) (UniProt Q9ZVR7).
T1 sequence: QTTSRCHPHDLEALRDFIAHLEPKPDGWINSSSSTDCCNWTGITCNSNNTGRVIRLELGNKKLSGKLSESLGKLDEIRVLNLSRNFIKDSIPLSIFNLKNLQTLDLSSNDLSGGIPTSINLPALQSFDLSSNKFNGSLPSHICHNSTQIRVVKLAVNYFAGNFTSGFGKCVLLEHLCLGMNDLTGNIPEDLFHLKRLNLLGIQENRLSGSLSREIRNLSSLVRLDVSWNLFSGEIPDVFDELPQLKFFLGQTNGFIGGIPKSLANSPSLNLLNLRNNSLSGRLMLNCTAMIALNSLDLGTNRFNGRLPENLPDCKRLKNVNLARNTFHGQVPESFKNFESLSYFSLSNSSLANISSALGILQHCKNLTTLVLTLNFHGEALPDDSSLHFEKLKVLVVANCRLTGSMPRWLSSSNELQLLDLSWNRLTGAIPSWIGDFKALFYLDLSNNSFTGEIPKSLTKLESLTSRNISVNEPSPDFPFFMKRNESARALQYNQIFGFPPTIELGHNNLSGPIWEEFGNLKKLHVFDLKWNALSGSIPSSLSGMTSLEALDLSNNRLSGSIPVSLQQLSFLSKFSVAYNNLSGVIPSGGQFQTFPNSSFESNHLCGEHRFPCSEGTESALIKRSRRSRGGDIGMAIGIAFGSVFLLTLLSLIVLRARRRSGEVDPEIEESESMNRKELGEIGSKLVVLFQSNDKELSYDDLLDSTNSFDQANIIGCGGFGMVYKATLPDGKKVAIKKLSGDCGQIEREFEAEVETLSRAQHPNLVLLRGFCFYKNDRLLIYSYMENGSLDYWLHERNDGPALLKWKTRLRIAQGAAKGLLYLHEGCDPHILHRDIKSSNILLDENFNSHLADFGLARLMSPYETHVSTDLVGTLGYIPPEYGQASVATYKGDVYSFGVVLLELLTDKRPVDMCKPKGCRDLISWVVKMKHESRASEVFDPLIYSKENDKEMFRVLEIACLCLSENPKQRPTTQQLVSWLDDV
In words: split reporter; split luciferase complementation; 35S:cLUC-Rboh and 35S:ALR1-nLUC co-infiltrated into N. benthamiana leaves, imaged 48 h after infiltration.

The target of assay [2] is T2, BAK1-cYFP (Arabidopsis thaliana) (UniProt Q94F62).
T2 sequence: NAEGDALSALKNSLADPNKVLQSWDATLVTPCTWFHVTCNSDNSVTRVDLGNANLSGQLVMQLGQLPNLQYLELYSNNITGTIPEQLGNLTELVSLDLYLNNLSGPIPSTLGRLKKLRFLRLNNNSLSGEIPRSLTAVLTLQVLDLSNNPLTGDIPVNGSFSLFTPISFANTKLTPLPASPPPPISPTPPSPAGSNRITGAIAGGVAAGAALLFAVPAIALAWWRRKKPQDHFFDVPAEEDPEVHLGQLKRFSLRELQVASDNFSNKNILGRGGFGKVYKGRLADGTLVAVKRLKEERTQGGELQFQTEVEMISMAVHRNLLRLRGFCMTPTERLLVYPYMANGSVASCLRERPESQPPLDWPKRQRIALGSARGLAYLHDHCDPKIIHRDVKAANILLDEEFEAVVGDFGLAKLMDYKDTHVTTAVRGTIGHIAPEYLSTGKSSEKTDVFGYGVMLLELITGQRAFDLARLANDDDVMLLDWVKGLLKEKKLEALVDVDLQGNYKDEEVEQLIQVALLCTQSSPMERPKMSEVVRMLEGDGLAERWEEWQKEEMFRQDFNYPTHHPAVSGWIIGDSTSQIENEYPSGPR
Nature of the assay: split reporter; BiFC (nYFP/cYFP) in Arabidopsis mesophyll protoplasts, 10-12 h in W5 solution; control, 50 µM AlCl3 or 50 µM LaCl3 for 10 min before detection.

Assay [3] deals with T3, YFP-BAK1 (pUC35S-YFP-BAK1) (Arabidopsis thaliana) (UniProt Q94F62).
T3 sequence: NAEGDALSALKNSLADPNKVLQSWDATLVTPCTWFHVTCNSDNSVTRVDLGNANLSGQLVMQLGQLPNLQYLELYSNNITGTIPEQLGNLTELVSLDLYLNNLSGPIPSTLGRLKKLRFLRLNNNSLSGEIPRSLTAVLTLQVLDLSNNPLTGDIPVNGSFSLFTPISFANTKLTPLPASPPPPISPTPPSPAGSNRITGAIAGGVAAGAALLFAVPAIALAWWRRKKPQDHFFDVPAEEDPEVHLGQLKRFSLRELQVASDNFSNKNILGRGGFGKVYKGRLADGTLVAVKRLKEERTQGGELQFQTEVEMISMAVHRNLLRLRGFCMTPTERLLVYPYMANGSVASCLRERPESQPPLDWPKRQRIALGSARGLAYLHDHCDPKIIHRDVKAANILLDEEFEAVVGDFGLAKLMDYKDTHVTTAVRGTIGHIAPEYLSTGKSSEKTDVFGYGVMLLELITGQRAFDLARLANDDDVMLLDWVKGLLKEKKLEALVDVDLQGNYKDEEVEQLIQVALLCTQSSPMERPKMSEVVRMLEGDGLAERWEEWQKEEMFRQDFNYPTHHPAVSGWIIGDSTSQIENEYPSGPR
In words: co-IP; protoplasts of FLAG-ALR1/WT transfected with YFP-BAK1; control or 50 µM AlCl3 for 10 min; GFP-Trap, blots with α-GFP and α-FLAG.

Results are given in words; binding and its absence hold for the method and conditions named. In cells and extracts the contact can be indirect. Some results given as binding are weak or reduced against the parent protein; the word gives no strength. Tags and fused reporters may be left off the sequences shown.

B1: cLUC-RbohE (enzyme, UniProt O81211 1-952)
chain: MKLSPLSFSTSSSFSHADGIDDGVELISSPFAGGAMLPVFLNDLSRNSGESGSGSSWERELVEVTLELDVGDDSILVCGMSEAASVDSRARSVDLVTARLSRNLSNASTRIRQKLGKLLRSESWKTTTSSTAGERDRDLERQTAVTLGILTARDKRKEDAKLQRSTSSAQRALKGLQFINKTTRGNSCVCDWDCDCDQMWKKVEKRFESLSKNGLLARDDFGECVGMVDSKDFAVSVFDALARRRRQKLEKITKDELHDFWLQISDQSFDARLQIFFDMADSNEDGKITREEIKELLMLSASANKLAKLKEQAEEYASLIMEELDPENFGYIELWQLETLLLQRDAYMNYSRPLSTTSGGVSTPRRNLIRPRHVVQKCRKKLQCLILDNWQRSWVLLVWVMLMAILFVWKFLEYREKAAFKVMGYCLTTAKGAAETLKLNMALVLLPVCRNTLTWLRSTRARACVPFDDNINFHKIIACAIAIGILVHAGTHLACDFPRIINSSPEQFVLIASAFNGTKPTFKDLMTGAEGITGISMVILTTIAFTLASTHFRRNRVRLPAPLDRLTGFNAFWYTHHLLVVVYIMLIVHGTFLFFADKWYQKTTWMYISVPLVLYVAERSLRACRSKHYSVKILKVSMLPGEVLSLIMSKPPGFKYKSGQYIFLQCPTISRFEWHPFSITSAPGDDQLSVHIRTLGDWTEELRRVLTVGKDLSTCVIGRSKFSAYCNIDMINRPKLLVDGPYGAPAQDYRSYDVLLLIGLGIGATPFISILKDLLNNSRDEQTDNEFSRSDFSWNSCTSSYTTATPTSTHGGKKKAVKAHFYWVTREPGSVEWFRGVMEEISDMDCRGQIELHNYLTSVYDEGDARSTLIKMVQALNHAKHGVDILSGTRVRTHFARPNWKEVFSSIARKHPNSTVGVFYCGIQTVAKELKKQAQDMSQKTTTRFEFHKEHF
On to B1, for which the binding entry in assay [1] is “binds weakly”.

B2: cLUC-RbohA (enzyme, UniProt O81209 1-902)
chain: MMNRSEMQKLGFEHVRYYTESPYNRGESSANVATTSNYYGEDEPYVEITLDIHDDSVSVYGLKSPNHRGAGSNYEDQSLLRQGRSGRSNSVLKRLASSVSTGITRVASSVSSSSARKPPRPQLAKLRRSKSRAELALKGLKFITKTDGVTGWPEVEKRFYVMTMTTNGLLHRSRFGECIGMKSTEFALALFDALARRENVSGDSININELKEFWKQITDQDFDSRLRTFFAMVDKDSDGRLNEAEVREIITLSASANELDNIRRQADEYAALIMEELDPYHYGYIMIENLEILLLQAPMQDVRDGEGKKLSKMLSQNLMVPQSRNLGARFCRGMKYFLFDNWKRVWVMALWIGAMAGLFTWKFMEYRKRSAYEVMGVCVCIAKGAAETLKLNMAMILLPVCRNTITWLRTKTKLSAIVPFDDSLNFHKVIAIGISVGVGIHATSHLACDFPRLIAADEDQYEPMEKYFGPQTKRYLDFVQSVEGVTGIGMVVLMTIAFTLATTWFRRNKLNLPGPLKKITGFNAFWYSHHLFVIVYSLLVVHGFYVYLIIEPWYKKTTWMYLMVPVVLYLCERLIRAFRSSVEAVSVLKVAVLPGNVLSLHLSRPSNFRYKSGQYMYLNCSAVSTLEWHPFSITSAPGDDYLSVHIRVLGDWTKQLRSLFSEVCKPRPPDEHRLNRADSKHWDYIPDFPRILIDGPYGAPAQDYKKFEVVLLVGLGIGATPMISIVSDIINNLKGVEEGSNRRQSPIHNMVTPPVSPSRKSETFRTKRAYFYWVTREQGSFDWFKNVMDEVTETDRKNVIELHNYCTSVYEEGDARSALITMLQSLNHAKHGVDVVSGTRVMSHFARPNWRSVFKRIAVNHPKTRVGVFYCGAAGLVKELRHLSLDFSHKTSTKFIFHKENF
In the case of B2, the binding result in assay [1] is “binds weakly”.

B3: ALR1-nYFP (receptor, UniProt Q9ZVR7 26-1008)
chain: QTTSRCHPHDLEALRDFIAHLEPKPDGWINSSSSTDCCNWTGITCNSNNTGRVIRLELGNKKLSGKLSESLGKLDEIRVLNLSRNFIKDSIPLSIFNLKNLQTLDLSSNDLSGGIPTSINLPALQSFDLSSNKFNGSLPSHICHNSTQIRVVKLAVNYFAGNFTSGFGKCVLLEHLCLGMNDLTGNIPEDLFHLKRLNLLGIQENRLSGSLSREIRNLSSLVRLDVSWNLFSGEIPDVFDELPQLKFFLGQTNGFIGGIPKSLANSPSLNLLNLRNNSLSGRLMLNCTAMIALNSLDLGTNRFNGRLPENLPDCKRLKNVNLARNTFHGQVPESFKNFESLSYFSLSNSSLANISSALGILQHCKNLTTLVLTLNFHGEALPDDSSLHFEKLKVLVVANCRLTGSMPRWLSSSNELQLLDLSWNRLTGAIPSWIGDFKALFYLDLSNNSFTGEIPKSLTKLESLTSRNISVNEPSPDFPFFMKRNESARALQYNQIFGFPPTIELGHNNLSGPIWEEFGNLKKLHVFDLKWNALSGSIPSSLSGMTSLEALDLSNNRLSGSIPVSLQQLSFLSKFSVAYNNLSGVIPSGGQFQTFPNSSFESNHLCGEHRFPCSEGTESALIKRSRRSRGGDIGMAIGIAFGSVFLLTLLSLIVLRARRRSGEVDPEIEESESMNRKELGEIGSKLVVLFQSNDKELSYDDLLDSTNSFDQANIIGCGGFGMVYKATLPDGKKVAIKKLSGDCGQIEREFEAEVETLSRAQHPNLVLLRGFCFYKNDRLLIYSYMENGSLDYWLHERNDGPALLKWKTRLRIAQGAAKGLLYLHEGCDPHILHRDIKSSNILLDENFNSHLADFGLARLMSPYETHVSTDLVGTLGYIPPEYGQASVATYKGDVYSFGVVLLELLTDKRPVDMCKPKGCRDLISWVVKMKHESRASEVFDPLIYSKENDKEMFRVLEIACLCLSENPKQRPTTQQLVSWLDDV
Take B3: the binding result in assay [2] is listed as “binds”.

B4: FLAG-ALR1 (receptor, UniProt Q9ZVR7 26-1008)
chain: QTTSRCHPHDLEALRDFIAHLEPKPDGWINSSSSTDCCNWTGITCNSNNTGRVIRLELGNKKLSGKLSESLGKLDEIRVLNLSRNFIKDSIPLSIFNLKNLQTLDLSSNDLSGGIPTSINLPALQSFDLSSNKFNGSLPSHICHNSTQIRVVKLAVNYFAGNFTSGFGKCVLLEHLCLGMNDLTGNIPEDLFHLKRLNLLGIQENRLSGSLSREIRNLSSLVRLDVSWNLFSGEIPDVFDELPQLKFFLGQTNGFIGGIPKSLANSPSLNLLNLRNNSLSGRLMLNCTAMIALNSLDLGTNRFNGRLPENLPDCKRLKNVNLARNTFHGQVPESFKNFESLSYFSLSNSSLANISSALGILQHCKNLTTLVLTLNFHGEALPDDSSLHFEKLKVLVVANCRLTGSMPRWLSSSNELQLLDLSWNRLTGAIPSWIGDFKALFYLDLSNNSFTGEIPKSLTKLESLTSRNISVNEPSPDFPFFMKRNESARALQYNQIFGFPPTIELGHNNLSGPIWEEFGNLKKLHVFDLKWNALSGSIPSSLSGMTSLEALDLSNNRLSGSIPVSLQQLSFLSKFSVAYNNLSGVIPSGGQFQTFPNSSFESNHLCGEHRFPCSEGTESALIKRSRRSRGGDIGMAIGIAFGSVFLLTLLSLIVLRARRRSGEVDPEIEESESMNRKELGEIGSKLVVLFQSNDKELSYDDLLDSTNSFDQANIIGCGGFGMVYKATLPDGKKVAIKKLSGDCGQIEREFEAEVETLSRAQHPNLVLLRGFCFYKNDRLLIYSYMENGSLDYWLHERNDGPALLKWKTRLRIAQGAAKGLLYLHEGCDPHILHRDIKSSNILLDENFNSHLADFGLARLMSPYETHVSTDLVGTLGYIPPEYGQASVATYKGDVYSFGVVLLELLTDKRPVDMCKPKGCRDLISWVVKMKHESRASEVFDPLIYSKENDKEMFRVLEIACLCLSENPKQRPTTQQLVSWLDDV
On to B4, for which the binding entry in assay [3] was “binds”.
